Results reported in article PMC5597606.

Molecular target: T1, PKR-activating protein (PACT) (human (endogenous in HEK293T)) (UniProt O75569)
T1 sequence: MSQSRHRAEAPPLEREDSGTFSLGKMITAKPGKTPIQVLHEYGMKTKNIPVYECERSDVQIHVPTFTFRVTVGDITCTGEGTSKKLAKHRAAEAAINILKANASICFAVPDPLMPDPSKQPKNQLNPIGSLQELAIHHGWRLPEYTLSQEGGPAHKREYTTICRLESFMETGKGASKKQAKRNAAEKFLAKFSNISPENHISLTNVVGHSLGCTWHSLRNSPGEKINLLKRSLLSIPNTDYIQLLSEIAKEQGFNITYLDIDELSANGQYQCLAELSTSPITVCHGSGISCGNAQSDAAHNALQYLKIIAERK
Assay: co-IP; total proteins of HEK293T cells with or without PC1C, precipitated with anti-PACT antibody; detected with anti-GFP and anti-PKR antibodies

With “GFP-tagged PC1 C-terminus (PC1C, aa 4104-4302) (human) (domain or fragment)” the binding was “binds”.

No constants are given. Whether binding was seen depends on the method and setting. In cells and extracts the contact can be indirect. Binding can be weak; no strength is given.
